From article PMC12520676 come the findings set out here.

By UniProt entry, the sequences of proteins in these tests, tags left out.
UniProt Q3KP44: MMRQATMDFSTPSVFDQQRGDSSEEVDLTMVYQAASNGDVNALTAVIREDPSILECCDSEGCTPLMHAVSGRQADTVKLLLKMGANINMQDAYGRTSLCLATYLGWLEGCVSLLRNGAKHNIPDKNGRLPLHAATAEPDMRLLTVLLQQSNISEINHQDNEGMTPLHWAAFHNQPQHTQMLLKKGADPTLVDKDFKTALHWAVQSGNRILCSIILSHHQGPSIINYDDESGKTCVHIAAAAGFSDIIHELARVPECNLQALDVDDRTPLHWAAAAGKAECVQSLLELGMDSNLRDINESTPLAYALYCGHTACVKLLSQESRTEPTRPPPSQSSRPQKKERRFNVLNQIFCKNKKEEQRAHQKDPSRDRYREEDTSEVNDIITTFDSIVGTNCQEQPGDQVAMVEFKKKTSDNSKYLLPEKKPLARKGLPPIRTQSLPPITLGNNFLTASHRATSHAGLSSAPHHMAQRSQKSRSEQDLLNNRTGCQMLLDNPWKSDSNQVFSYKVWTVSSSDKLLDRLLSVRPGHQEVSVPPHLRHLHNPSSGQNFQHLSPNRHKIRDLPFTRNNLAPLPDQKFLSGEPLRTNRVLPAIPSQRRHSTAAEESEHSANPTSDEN
UniProt P50990: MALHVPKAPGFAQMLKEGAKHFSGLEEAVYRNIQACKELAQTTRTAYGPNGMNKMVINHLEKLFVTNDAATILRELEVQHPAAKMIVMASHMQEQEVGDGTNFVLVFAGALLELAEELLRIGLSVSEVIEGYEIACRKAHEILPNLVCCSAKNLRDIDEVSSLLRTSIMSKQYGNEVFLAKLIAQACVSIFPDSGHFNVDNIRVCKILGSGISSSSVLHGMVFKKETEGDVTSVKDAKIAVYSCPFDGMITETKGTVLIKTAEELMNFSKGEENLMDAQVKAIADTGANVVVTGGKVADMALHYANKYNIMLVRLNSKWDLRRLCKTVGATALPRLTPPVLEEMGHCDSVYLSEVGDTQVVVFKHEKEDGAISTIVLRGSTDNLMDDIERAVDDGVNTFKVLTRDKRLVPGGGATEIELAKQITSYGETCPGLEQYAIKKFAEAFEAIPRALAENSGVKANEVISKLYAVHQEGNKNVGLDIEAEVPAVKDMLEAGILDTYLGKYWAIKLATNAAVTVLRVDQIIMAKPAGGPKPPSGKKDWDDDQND
UniProt P48643: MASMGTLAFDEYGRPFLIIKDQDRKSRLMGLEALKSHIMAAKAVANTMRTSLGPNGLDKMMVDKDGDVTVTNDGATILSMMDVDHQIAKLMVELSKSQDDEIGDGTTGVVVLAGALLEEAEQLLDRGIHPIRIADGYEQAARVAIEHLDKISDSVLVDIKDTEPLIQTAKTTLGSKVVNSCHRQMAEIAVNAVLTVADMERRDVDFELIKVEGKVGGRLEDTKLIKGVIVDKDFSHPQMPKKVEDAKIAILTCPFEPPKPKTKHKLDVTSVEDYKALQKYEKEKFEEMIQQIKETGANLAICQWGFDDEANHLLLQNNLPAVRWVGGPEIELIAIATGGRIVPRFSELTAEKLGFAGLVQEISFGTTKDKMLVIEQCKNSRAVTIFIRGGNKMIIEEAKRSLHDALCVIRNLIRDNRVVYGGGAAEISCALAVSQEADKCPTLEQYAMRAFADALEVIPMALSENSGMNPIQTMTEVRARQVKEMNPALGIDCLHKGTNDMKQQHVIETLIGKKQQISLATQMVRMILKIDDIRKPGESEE

Results are given in words; binding and its absence hold for the method and conditions named. In cells and extracts the contact can be indirect. Some results given as binding are weak or reduced against the parent protein; the word gives no strength.

In the assay the target is ankyrin repeat domain-containing protein 55 (ANKRD55), overexpressed in HEK293T cells (UniProt Q3KP44). In words: co-IP; ANKRD55 and one CCT subunit overexpressed in HEK293T; RIPA lysate; Protein A/G magnetic beads coupled to 1 ug antibody overnight at 4 C; 4 washes with lysis buffer; immunoblot. (In general: In western blotting, separated proteins are transferred to a membrane and probed.)

Regarding “CCT8, expressed from a plasmid in HEK293T cells (from UniProt P50990 1-548)”, the binding result is on record as “no binding”.

Regarding “CCT5, expressed from a plasmid in HEK293T cells (from UniProt P48643 1-541)”, the binding result is “no binding”.

B1: CCT2, expressed from a plasmid in HEK293T cells (protein, UniProt P78371 1-535)
chain: MASLSLAPVNIFKAGADEERAETARLTSFIGAIAIGDLVKSTLGPKGMDKILLSSGRDASLMVTNDGATILKNIGVDNPAAKVLVDMSRVQDDEVGDGTTSVTVLAAELLREAESLIAKKIHPQTIIAGWREATKAAREALLSSAVDHGSDEVKFRQDLMNIAGTTLSSKLLTHHKDHFTKLAVEAVLRLKGSGNLEAIHIIKKLGGSLADSYLDEGFLLDKKIGVNQPKRIENAKILIANTGMDTDKIKIFGSRVRVDSTAKVAEIEHAEKEKMKEKVERILKHGINCFINRQLIYNYPEQLFGAAGVMAIEHADFAGVERLALVTGGEIASTFDHPELVKLGSCKLIEEVMIGEDKLIHFSGVALGEACTIVLRGATQQILDEAERSLHDALCVLAQTVKDSRTVYGGGCSEMLMAHAVTQLANRTPGKEAVAMESYAKALRMLPTIIADNAGYDSADLVAQLRAAHSEGNTTAGLDMREGTIGDMAILGITESFQVKRQVLLSAAEAAEVILRVDNIIKAAPRKRVPDHHPC
For the molecule B1, the binding result is “binds”.
